No constants are given. Whether binding was seen depends on the method and setting. A result given as binding can be weak or reduced; the word gives no strength.
Biological target: MenT1 T39A (Mycobacterium tuberculosis) (UniProt L7N686)
Test: SEC; both purified

B1: MenA1 wild type (protein, UniProt I6X8G2 2-68)
chain: AVSVAAQKLRLALDMYEVGEQMQRMRLGRERPNADVVEIEAAIDAWRMTRPGAEEGDSAGPTSTRFT
binding: binds
